Test results as given in US20060128757A1, “Pyridine derivatives useful as cyclooxygenase inhibitor” (Astellas Pharma Inc., priority 2001, published 2006).

Tested on: stomachs (gastric lesions) of rats
Experiment: Gastric ulcerogenic activity in rats
Type: in vivo, Male Sprague-Dawley rats
Conditions: oral, 5 h before autopsy, rats fasted 24 h
Protocol: Male Sprague-Dawley rats were used after a 24 h fast. Drugs were orally administered to groups of 10 rats 5 h before autopsy. The stomachs were macroscopically inspected and scored as follows: 0, no evidence of gastric lesions; 1, spotty submucosal hemorrhage or appearance of erosion; 3, widespread adherence of blood and large areas of submucosal hemorrhage or one to four small ulcers; 4, more than four small ulcers or one large ulcer; 5, numerous large ulcers.

In the case of COc1ccc(-n2nc(C(F)(F)F)cc2-c2ccc(Cl)cc2)cc1 [F, SC-560], the “Gastric ulcerogenic activity (Non-toxic dose)” value is reported as under 100 mg/kg.
